Experimental data: article PMC12828796
No constants are given. Whether binding was seen depends on the method and setting. Binding seen in cells or lysates may run through a third protein. A result given as binding can be weak or reduced; the word gives no strength.

Protein sequences, listed by entry. Tags and fused reporters are not part of them. Lines headed by an entry give the natural chain unless they say otherwise; changes in a name come on top.
UniProt P08254: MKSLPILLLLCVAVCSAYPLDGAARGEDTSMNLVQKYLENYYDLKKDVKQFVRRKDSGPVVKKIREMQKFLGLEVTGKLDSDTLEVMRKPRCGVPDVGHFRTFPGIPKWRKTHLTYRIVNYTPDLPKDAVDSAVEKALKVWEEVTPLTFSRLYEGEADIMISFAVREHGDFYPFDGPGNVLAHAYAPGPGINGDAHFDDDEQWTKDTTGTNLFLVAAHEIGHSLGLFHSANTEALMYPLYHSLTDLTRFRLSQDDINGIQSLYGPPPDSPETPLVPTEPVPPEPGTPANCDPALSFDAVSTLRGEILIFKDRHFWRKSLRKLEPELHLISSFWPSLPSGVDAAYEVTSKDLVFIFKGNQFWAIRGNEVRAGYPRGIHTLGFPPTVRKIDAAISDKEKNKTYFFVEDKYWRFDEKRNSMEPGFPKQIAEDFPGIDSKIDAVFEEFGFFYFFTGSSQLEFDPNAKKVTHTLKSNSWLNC
UniProt O15205: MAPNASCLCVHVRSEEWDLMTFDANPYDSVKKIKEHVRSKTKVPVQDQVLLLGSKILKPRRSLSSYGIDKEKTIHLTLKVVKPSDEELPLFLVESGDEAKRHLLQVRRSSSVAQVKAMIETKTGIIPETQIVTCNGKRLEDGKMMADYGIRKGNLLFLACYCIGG

Target: matrix metalloproteinase 3 (MMP3), as in the co-immunoprecipitation of Fig. 4G (UniProt P08254)
Assay: co-IP; cells lysed in chilled RIPA buffer with PMSF; supernatant incubated with 2 μg of the appropriate antibody and 30 μl protein A/G-agarose for 24 h at 4 °C; 4 washes with cold RIPA buffer; Western blot

In the case of “ubiquitin D (UBD), as in the co-immunoprecipitation of Fig. 4G (from UniProt O15205 1-165)”, the binding is reported as “binds”.
